Assay results reported in PubChem BioAssay AID540276 (National Center for Advancing Translational Sciences (NCATS), 2011).
Several values for one entry are separate records, joined by “and”; a condition that tells them apart may be missing. Identical values can stand only once. The whole screen tested about 300,000 compounds, of which about 5,400 (1.8%) were called active. This list was built around the results that the source calls inconclusive (neither active nor inactive); the mix of calls is not that of the screen. Calls follow the shape of the full dose curve; tested in HEK293 cells. Potencies beside an inconclusive call are fits to weak or partial responses and may not hold up.
Potency is read from the fitted curve at half-maximal effect.

Test: qHTS for inhibitors of binding or entry into cells for Marburg Virus
Details: Marburg virus pseudotyped entry inhibition, cell reporter; series mostly up to 37.8 µM
For `COc1ccccc1N(CC(=O)NCC(C)C)S(=O)(=O)c1cccs1`, the Potency was inconclusive: 5.17 µM [activator, single point].
In the case of `COC(=O)C1CN(C(=O)COc2ccc(Cl)c(C)c2)c2ccccc2O1` (configuration not stated), the Potency is reported as inconclusive: 7.08 µM [inhibitor, partial curve, poor fit].
In the case of `O=C(Cc1ccccc1)N/N=C/c1cccc([N+](=O)[O-])c1`, the Potency is reported as inconclusive: 14.1 µM [inhibitor, partial curve, poor fit].
For `Cc1ccc(/C=C/C(=O)N2CCCN(C(=O)/C=C/c3ccc(C)cc3)CC2)cc1`, the Potency was inconclusive: 5.01 µM [activator, single point].
For `CCOc1ccc(S(=O)(=O)N2CCN(S(=O)(=O)c3ccc(C(C)=O)cc3)CC2)cc1`, the Potency was “inactive”.
For `CCOc1ccccc1N(CC(=O)N1CCCCCC1)S(C)(=O)=O`, the Potency was inconclusive: 2.82 µM [activator, full curve, poor fit].
In the case of `O=C(Nc1ccc(Cl)cc1)N[C@@H]1c2c(ccc3ccccc23)OC[C@@H]1CO`, the Potency is reported as inconclusive: 29.1 µM [inhibitor, single point].
With `Cc1nc(N2CCN(Cc3ccccc3)CC2)nc2c1C(=O)CCC2` the Potency was inconclusive: 14.1 µM [inhibitor, single point].
With `CCc1cc2c(cc3c(=O)n(CC(=O)N4CCCCC4)nc(CC)n32)s1` the Potency was “inactive”.
For `c1coc(CNC2CCCCCCC2)c1`, the Potency was inconclusive: 35.5 µM [inhibitor, single point].
For `Cc1ccccc1CN1CCN(C/C=C/c2ccccc2)CC1`, the Potency was inconclusive: 18.3 µM [inhibitor, partial curve].
With `C=C(C(C)=O)C(O)c1ccc(C(F)(F)F)cc1` (configuration not stated) the Potency was “inactive”.
For `COc1ccc(N(CC(O)Cn2c3ccccc3c3ccccc32)S(=O)(=O)c2ccccc2)cc1` (configuration not stated), the Potency was inconclusive: 22.4 µM [inhibitor, single point].
In the case of `CCC(C)(C)n1nnnc1C(c1cc2cc(C)cc(C)c2[nH]c1=O)N1CCCC1` (configuration not stated), the Potency is reported as inconclusive: 1.83 µM [inhibitor, partial curve].
For `N#CCSc1nc(Nc2ccc3c(c2)OCO3)c2ccccc2n1`, the Potency was inconclusive: 18.3 µM [inhibitor, single point].
With `CCCCN(C)CC(O)Cn1cc(/C=C/C(=O)c2ccc(OC)c(OC)c2)c2ccccc21` (configuration not stated) the Potency was active: 4.47 µM.
For `CCOCCCN1CC(=O)N2[C@@H](Cc3c([nH]c4ccccc34)C2(C)C)C1=O`, the Potency was “inactive”.
For `COc1cccc(CSc2nnc(-c3ccncc3)n2N)c1`, the Potency was inconclusive: 1.41 µM [inhibitor, partial curve].
With `CCOc1ccccc1CNC(=O)C1CCCN(c2nc3ccccc3o2)C1` (configuration not stated) the Potency was “inactive”.
For `COc1ccc(F)cc1C(=O)C1CCCN(C(=O)Cc2c(C)noc2C)C1` (configuration not stated), the Potency was inconclusive: 5.62 µM [inhibitor, single point].
For `Cc1ccc(/C(N)=N/OC(=O)c2cccs2)cc1`, the Potency was inconclusive: 3.66 µM [activator, single point].
For `Cn1c(=O)[nH]c(=O)c2c1nc(NCc1ccccc1)n2CCCc1ccccc1`, the Potency was inconclusive: 25.1 µM [inhibitor, single point].
In the case of `CNC(=O)c1ccc(-c2nc(-c3ccccc3)cs2)cc1`, the Potency is reported as inconclusive: 5.62 µM [activator, single point].
For `N#C/C(=C\c1ccc(O)c(O)c1)C(=O)c1ccc(O)c(O)c1`, the Potency was inconclusive: 8.88 µM [inhibitor, single point] and inconclusive: 316 nM [inhibitor, full curve].
For `COc1ccc(N2CCN(c3nc(NCCc4ccc(OC)c(OC)c4)nc(OC)n3)CC2)cc1`, the Potency was inconclusive: 18.3 µM [inhibitor, single point].
For `O=C(/C=C/c1cccs1)N1CCN(c2ccc(F)cc2)CC1`, the Potency was “inactive”.
In the case of `Cc1cc(OCC(=O)Nc2ccccc2N2CCCCC2)ccc1C(C)C`, the Potency is reported as inconclusive: 35.5 µM [inhibitor, single point].
With `c1coc(-c2nc3c4c5c(sc4ncn3n2)CCCC5)c1` the Potency was inconclusive: 32.6 µM [inhibitor, single point].
For `O=C(NN(c1ccccc1)c1ccccc1)c1ccc([N+](=O)[O-])o1`, the Potency was inconclusive: 8.91 µM [inhibitor, partial curve, poor fit].
For `O=S(=O)(c1ccc(Br)cc1)c1nc(-c2ccco2)oc1NCCCn1ccnc1`, the Potency was “inactive”.
In the case of `CCC1(C(=O)OC)CCc2c(cc(OC)c3ccccc23)C1=O` (configuration not stated), the Potency is reported as inconclusive: 10 µM [inhibitor, partial curve, poor fit].
In the case of `COc1ccc(N(C(=O)c2ccco2)S(=O)(=O)c2cc(Cl)c(Cl)cc2Cl)cc1`, the Potency is reported as inconclusive: 1.83 µM [inhibitor, partial curve, poor fit].
For `CCOc1ccc(-n2c(-c3ccccc3)nnc2-c2ccccc2)cc1`, the Potency was “inactive”.
For `O=C(c1cc2ccccc2oc1=O)N(Cc1ccco1)C1CCS(=O)(=O)C1` (configuration not stated), the Potency was “inactive”.
In the case of `COCOc1ccc(OC)cc1C(=O)/C=C/c1ccc(OC)c(Br)c1`, the Potency is reported as inconclusive: 0.376 µM [inhibitor, full curve, poor fit].
For `CCc1ccc(C(=O)/C=C/Nc2ccc(S(=O)(=O)Nc3onc(C)c3C)cc2)cc1`, the Potency was “inactive”.
With `CC1CCN(CCOc2ccc(Cl)c(Cl)c2)CC1` the Potency was inconclusive: 5.62 µM [inhibitor, single point].
With `CCOC(=O)N1CCN(Cc2nc3cc(NC(=O)c4cccs4)ccc3n2C)CC1` the Potency was inconclusive: 20 µM [inhibitor, single point].
For `O=S(=O)(c1ccccc1)c1ncc(C(F)(F)F)cc1Cl`, the Potency was inconclusive: 22.4 µM [inhibitor, single point].
For `O=C(NCCCl)Nc1ccc(Cl)c([N+](=O)[O-])c1`, the Potency was inconclusive: 35.5 µM [inhibitor, single point].
For `Cc1cc(/C=N/O)c(C)n1-c1cccc(Cl)c1`, the Potency was inconclusive: 31.6 µM [inhibitor, single point].
With `O=C(NCCc1ccccc1)C1CCN(S(=O)(=O)c2cccs2)CC1` the Potency was inconclusive: 20.6 µM [activator, partial curve, poor fit].
